Experimental data taken from patent US20090054321A1.
No constants are given. Whether binding was seen depends on the method and setting. For some assays here: In cells and extracts the contact can be indirect. Some entries that bind do so weakly or less than the wild type. For some assays here: Sequences can lack the tags named with a protein.

The chains behind the UniProt entries cited, without tags or fusion partners. Residues count along the entry.
UniProt O60603: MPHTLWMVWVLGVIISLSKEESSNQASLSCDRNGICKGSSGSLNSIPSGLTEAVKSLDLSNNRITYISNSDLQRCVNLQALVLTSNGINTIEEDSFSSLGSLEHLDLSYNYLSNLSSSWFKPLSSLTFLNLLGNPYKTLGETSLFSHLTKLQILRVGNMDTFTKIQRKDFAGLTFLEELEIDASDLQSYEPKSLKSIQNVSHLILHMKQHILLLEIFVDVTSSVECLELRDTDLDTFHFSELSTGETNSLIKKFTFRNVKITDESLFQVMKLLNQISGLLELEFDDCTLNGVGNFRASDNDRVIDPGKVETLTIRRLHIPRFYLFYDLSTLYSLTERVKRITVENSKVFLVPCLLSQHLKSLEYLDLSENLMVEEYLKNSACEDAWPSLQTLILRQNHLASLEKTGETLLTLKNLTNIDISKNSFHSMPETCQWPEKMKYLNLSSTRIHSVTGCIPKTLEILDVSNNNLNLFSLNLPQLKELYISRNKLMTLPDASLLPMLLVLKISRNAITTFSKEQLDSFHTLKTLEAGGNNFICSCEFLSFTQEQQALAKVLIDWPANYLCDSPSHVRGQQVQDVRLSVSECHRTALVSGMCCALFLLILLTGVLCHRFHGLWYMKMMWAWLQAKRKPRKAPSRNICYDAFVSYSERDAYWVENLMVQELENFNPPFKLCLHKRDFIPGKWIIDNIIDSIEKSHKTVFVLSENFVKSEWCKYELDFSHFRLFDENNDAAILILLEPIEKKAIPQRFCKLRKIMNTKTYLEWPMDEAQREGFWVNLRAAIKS
UniProt O00206, residues 24-839: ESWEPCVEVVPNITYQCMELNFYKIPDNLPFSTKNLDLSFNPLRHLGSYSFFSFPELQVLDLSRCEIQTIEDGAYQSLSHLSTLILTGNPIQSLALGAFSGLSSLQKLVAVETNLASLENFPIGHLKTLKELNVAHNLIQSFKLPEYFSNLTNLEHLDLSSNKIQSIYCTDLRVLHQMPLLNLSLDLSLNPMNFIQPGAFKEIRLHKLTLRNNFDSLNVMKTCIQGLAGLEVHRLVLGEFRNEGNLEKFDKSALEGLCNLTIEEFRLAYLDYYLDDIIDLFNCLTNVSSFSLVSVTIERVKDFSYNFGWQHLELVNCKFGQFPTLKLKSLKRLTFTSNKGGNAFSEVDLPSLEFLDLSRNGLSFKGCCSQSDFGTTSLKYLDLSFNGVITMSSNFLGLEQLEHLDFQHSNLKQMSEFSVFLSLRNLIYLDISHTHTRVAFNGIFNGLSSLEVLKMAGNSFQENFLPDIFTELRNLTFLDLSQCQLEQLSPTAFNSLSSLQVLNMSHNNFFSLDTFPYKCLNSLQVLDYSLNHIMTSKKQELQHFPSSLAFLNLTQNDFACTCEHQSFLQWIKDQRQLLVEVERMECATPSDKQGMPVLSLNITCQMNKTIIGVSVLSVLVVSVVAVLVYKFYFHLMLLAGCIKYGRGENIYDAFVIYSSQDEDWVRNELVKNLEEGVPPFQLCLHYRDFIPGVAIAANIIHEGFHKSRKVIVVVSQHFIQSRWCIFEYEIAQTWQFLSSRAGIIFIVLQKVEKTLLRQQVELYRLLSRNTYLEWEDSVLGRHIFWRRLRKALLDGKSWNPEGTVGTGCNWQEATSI
UniProt Q99836: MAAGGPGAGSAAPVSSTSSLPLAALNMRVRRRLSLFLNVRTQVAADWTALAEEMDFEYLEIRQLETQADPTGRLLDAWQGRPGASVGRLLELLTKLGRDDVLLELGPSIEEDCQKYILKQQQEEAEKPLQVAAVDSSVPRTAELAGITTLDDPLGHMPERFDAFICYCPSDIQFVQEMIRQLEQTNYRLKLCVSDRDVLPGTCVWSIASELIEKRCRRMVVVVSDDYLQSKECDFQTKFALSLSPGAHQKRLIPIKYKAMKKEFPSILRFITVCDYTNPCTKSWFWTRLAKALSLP

Tests used:
Flag-tagged TLR2 [1] = target: Flag-tagged TLR2 (UniProt O60603); assay: co-immunoprecipitation, HEK-293 cells (FIG. 9A)
Flag-tagged TLR4 [2] = target: Flag-tagged TLR4 (UniProt O00206); assay: co-immunoprecipitation, HEK-293 cells (FIG. 9A)
Myc-tagged MyD88 [3] = target: Myc-tagged MyD88 (UniProt Q99836); assay: co-immunoprecipitation, HEK-293 cells (FIG. 9B)
Flag-tagged TLR2 [4] = target: Flag-tagged TLR2 (UniProt O60603); assay: summary of the co-immunoprecipitation experiments
Flag-tagged TLR4 [5] = target: Flag-tagged TLR4 (UniProt O00206); assay: summary of the co-immunoprecipitation experiments
Myc-tagged MyD88 [6] = target: Myc-tagged MyD88 (UniProt Q99836); assay: summary of the co-immunoprecipitation experiments
Flag-tagged TLR2 [7] = target: Flag-tagged TLR2 (UniProt O60603); assay: co-immunoprecipitation, HEK-293 cells, anti-flag beads, blot with anti-TLR14
Flag-tagged TLR4 [8] = target: Flag-tagged TLR4 (UniProt O00206); assay: as above
Myc-tagged MyD88 [9] = target: Myc-tagged MyD88 (UniProt Q99836); assay: co-immunoprecipitation, HEK-293 cells, anti-myc antibody on protein-A sepharose, blot with anti-TLR14
Flag-tagged TLR2 [10] = target: Flag-tagged TLR2 (UniProt O60603); assay: immunoprecipitation of flag-tagged TLR2 from HEK-293 cells, blot with anti-TLR14
Flag-tagged TLR2 [11] = target: Flag-tagged TLR2 (UniProt O60603); assay: immunoprecipitation of flag-tagged TLR2 from HEK-293 cells, blot with anti-TLR14 (FIG. 10)

Measured: binding

B1: TLR14 (human, KIAA0644 cDNA cloned into pcDNA 3.1 with a C-terminal hemagglutinin tag, overexpressed in HEK-293 cells) (receptor, not shown: small tags and cut ends)
chain: VCPERCDCQHPQHLLCTNRGLRVVPKTSSLPSPHDVLTYSLGGNFITNITAFDFHRLGQLRRLDLQYNQIRSLHPKTFEKLSRLEELYLGNNLLQALAPGTLAPLRKLRILYANGNEISRLSRGSFEGLESLVKLRLDGNALGALPDAVFAPLGNLLYLHLESNRIRFLGKNAFAQLGKLRFLNLSANELQPSLRHAATFAPLRSLSSLILSANSLQHLGPRIFQHLPRLGLLSLRGNQLTHLAPEAFWGLEALRELRLEGNRLSQLPTALLEPLHSLEALDLSGNELSALHPATFGHLGRLRELSLRNNALSALSGDIFAASPALYRLDLDGNGWTCDCRLRGLKRWMGDWHSQGRLLTVFVQCRHPPALRGKYLDYLDDQQLQNGSCADPSPSASLTADRRRQPLPTAAGEEMTPPAGLAEELPPQPQLQQQGRFLAGVAWDGAARELVGNRSALRLSRRGPGLQQPSPSVAAAAGPAPQSLDLHKKPQRGRPTRADPALAEPTPTASPGSAPSPAGDPWQRATKHRLGTEHQERAAQSDGGAGLPPLVSDPCDFNKFILCNLTVEAVGADSASVRWAVREHRSPRPLGGARFRLLFDRFGQQPKFHRFVYLPESSDSATLRELRGDTPYLVCVEGVLGGRVCPVAPRDHCAGLVTLPEAGSRGGVDYQLLTLALLTVNALLVLLALAAWASRWLRRKLRARRKGGAPVHVRHMYSTRRPLRSMGTGVSADFSGFQSHRPRTTVCALSEADLIEFPCDRFMDSAGGGAGGSLRREDRLLQRFAD
not listed: Flag-tagged TLR2 [10] | Flag-tagged TLR2 [11]
binds: all other assays above

B2: endogenous TLR14 (human; HEK-293 cells, human brain and lung tissue) (receptor)
chain: B1 chain
binds: Flag-tagged TLR2 [10] | Flag-tagged TLR2 [11]
